Data as given in PubChem BioAssay AID743454 (Peter MacCallum Cancer Centre, 2014).
This is a random part of about 18,000 deposited reagents. In the full data, 450 (2.5%) are marked active. 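Single biological run; no consistent viability z cut-off exists, so the class columns, not z-scores, define the calls.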

- Assay: 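Genes whose loss kills vorinostat-resistant colon cancer cells under vorinostat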 (primary screen)
- Cell system: human HCT116-VR colon cancer cells, selected for vorinostat resistance
- Knock-down reagent: siRNA pool against human genes, 40 nM siRNA pool
- Timing: vorinostat for 24 h, read-out about 72 h after transfection
- Conditions: vorinostat at 2.5 µM final
- Detection: 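Cell viability by CellTiter-Fluor and caspase 3/7 activity by luminescence, each scaled to mock wells per plate, duplicates averaged, then robust z-scored over all plates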
- Direction: viability robust z-score: higher = more viable cells than screen typical; caspase robust z-score: higher = more caspase 3/7 activity than screen typical
- Call rule: 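a knock-down is a hit when classed RV1 or RV2 for lowered viability, or CA1 or CA2 for caspase activation; those lethal without drug were dropped; hits were retested singly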

Knock-down of PRKRIP1 (PRKR interacting protein 1) gave: viability hit class no change; caspase hit class no change; viability robust z-score 1.44; caspase robust z-score -0.35; inactive. After knock-down of SNTG1 (syntrophin gamma 1), the record shows viability hit class no change; caspase hit class no change; viability robust z-score -0.96; caspase robust z-score -0.1; inactive. KIF7 (kinesin family member 7) showed viability hit class no change; caspase hit class no change; viability robust z-score 0.3; caspase robust z-score 0.08; inactive. INTS11 (integrator complex subunit 11) showed viability hit class no change; caspase hit class no change; viability robust z-score 1.08; caspase robust z-score -0.52; inactive. Against ZMYM5 (zinc finger MYM-type containing 5) the deposit lists viability hit class no change; caspase hit class no change; viability robust z-score 0.4; caspase robust z-score -0.04; inactive. With knock-down of BORCS6 (BLOC-1 related complex subunit 6), the record shows viability hit class no change; caspase hit class no change; viability robust z-score -2.5; caspase robust z-score 0.54; inactive.

For RNF121 (ring finger protein 121), the values are viability hit class no change; caspase hit class CA1 (caspase activation); viability robust z-score -2.1; caspase robust z-score 6.13; active. Depletion of ARSF (arylsulfatase F) gave: viability hit class no change; caspase hit class no change; viability robust z-score -0.48; caspase robust z-score 0; inactive. After knock-down of POLR2J3 (RNA polymerase II subunit J3) the results were viability hit class RV2 (reduced viability); caspase hit class no change; viability robust z-score -3.14; caspase robust z-score 0.06; active. ZNF827 (zinc finger protein 827) scored viability hit class no change; caspase hit class no change; viability robust z-score -0.26; caspase robust z-score -0.69; inactive. With knock-down of ARHGAP21 (Rho GTPase activating protein 21), the screen gave viability hit class no change; caspase hit class no change; viability robust z-score 0.97; caspase robust z-score 3.73; inactive. After knock-down of SPAG9 (sperm associated antigen 9), the screen gave viability hit class no change; caspase hit class no change; viability robust z-score 0.14; caspase robust z-score -0.12; inactive.

With knock-down of SLC9C2, the record shows viability hit class no change; caspase hit class no change; viability robust z-score 1.36; caspase robust z-score 0.62; inactive. Depletion of ZFP14 (ZFP14 zinc finger protein) resulted in: viability hit class no change; caspase hit class no change; viability robust z-score -0.02; caspase robust z-score -0.97; inactive. Against KLHL10 (kelch like family member 10), the entry reads viability hit class no change; caspase hit class no change; viability robust z-score -0.47; caspase robust z-score 1.19; inactive. After knock-down of HEMK2 the results were viability hit class no change; caspase hit class no change; viability robust z-score -0.07; caspase robust z-score 0.72; inactive. MRC2 (mannose receptor C-type 2) showed viability hit class no change; caspase hit class no change; viability robust z-score -2.79; caspase robust z-score 4.26; inactive. With knock-down of RNF19B (ring finger protein 19B), the record shows viability hit class no change; caspase hit class CA2 (caspase activation); viability robust z-score -1.34; caspase robust z-score 7.48; active.

With knock-down of ZDHHC11 (zDHHC palmitoyltransferase 11) the results were viability hit class no change; caspase hit class no change; viability robust z-score -0.3; caspase robust z-score 1.11; inactive. Silencing of JAM3 (junctional adhesion molecule 3) gave: viability hit class no change; caspase hit class no change; viability robust z-score -1.22; caspase robust z-score 1.07; inactive. With knock-down of CAVIN1 (caveolae associated protein 1), the screen gave viability hit class no change; caspase hit class no change; viability robust z-score 0.93; caspase robust z-score -0.47; inactive.
